# Experimental data taken from PubChem BioAssay AID652163 (Broad Institute, 2013).
# By UniProt entry, the sequences of proteins in these tests, tags left out.
# UniProt P26447, whole entry, looked up: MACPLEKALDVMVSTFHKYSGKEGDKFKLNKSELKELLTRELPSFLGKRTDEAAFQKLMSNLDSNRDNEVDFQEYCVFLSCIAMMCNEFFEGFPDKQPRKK
# Screen size: about 360,000 compounds; about 500 (0.14%) were called active. The inconclusive results got no clear call from the source; some entries with a clear call stand among them for comparison.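 How the source made its calls: active means mean inhibition of at least 70% across replicates, with every replicate also reaching that level; inconclusive means mean inhibition reaches 70% but some replicates fall short; inactive means mean inhibition below 70%.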
# Target: Protein S100-A4 (Homo sapiens) (UniProt P26447)
# Test: inhibitors of S100A4-myosin IIA peptide binding, primary screen, biochemical, fluorescence polarization, TAMRA-MyoIIA peptide (AID 652163)
# Settings: at 10.7 µM, hits give high values
# Summary of the method: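 Material: S100A4 monomer (human). Medium: Calcium-containing HEPES buffer, pH 7.2. Probe or stimulus: labelled myosin peptide probe, 5 nM. Compound dosing: one concentration per compound. Timing: polarization read 5 min after assay mix addition, stable 5–60 min. Benchmarks: DMSO as neutral control, TFP as positive control.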
row,SMILES,inhibition
1,C[C@@H]1CN([C@H](C)CO)C(=O)c2c(c3ccccc3n2C)-c2ccccc2CO[C@H]1CN(C)S(=O)(=O)c1ccccc1,active: 131%
2,CCc1ccc2[nH]c(=O)c(CN(CCN(CC)CC)C(=S)NCc3ccco3)cc2c1,inconclusive: 81.7%
3,O=C(C[C@H]1C=C[C@H](NS(=O)(=O)c2cccc(F)c2)[C@H](CO)O1)NCc1ccc2c(c1)OCO2,inconclusive: 78.5%
4,COc1ccc(-c2cc(=O)oc3cc(OC(C)C(=O)NC(Cc4c[nH]c5ccc(O)cc45)C(=O)O)ccc23)cc1 (configuration not stated),inactive: 1.29%
5,CC(C)CC#Cc1cnc2c(c1)C(=O)N([C@H](C)CO)C[C@@H](C)[C@H](CN(C)S(C)(=O)=O)O2,active: 95.3%
6,CN1C(=O)c2cc(NC(=O)C3CC3)ccc2OC[C@H]2O[C@@H](CC(=O)NCC3CCCCC3)CC[C@H]21,inconclusive: 78%
7,O=C(NCCc1ccc2c(c1)OCO2)C1CCN(S(=O)(=O)c2ccc(Cl)cc2)CC1,inconclusive: 101%
8,CCOC(=O)CCCCCC(=O)Nc1ccc2c(c1)C(=O)N([C@H](C)CO)C[C@@H](C)[C@@H](CN(C)S(=O)(=O)c1ccc(C)cc1)OCCCC[C@H](C)O2,inactive: -1.86%
9,Cc1ccc(S(=O)(=O)Nc2cccc3c2O[C@@H](CN(C)S(=O)(=O)c2ccc(C)cc2)[C@H](C)CN([C@@H](C)CO)C3=O)cc1,inconclusive: 160%
10,O=C(NC1CCC1)[C@@H]1[C@@H](CO)[C@@H]2Cn3c(ccc(C4=CCCC4)c3=O)[C@H]1N2CC1CC1,inconclusive: 96.9%
11,CC(C)N(Cc1nc(-c2ccccc2)no1)C(=O)c1ccc2c(c1)OCO2,inactive: -6.2%
12,CCN(CC)c1ccc(/C=C/c2cccc[n+]2C)c(OC)c1,inconclusive: 79.5%
13,C[C@@H]1CCCCO[C@@H](CN(C)C(=O)Nc2cccc3ccccc23)[C@@H](C)CN([C@H](C)CO)C(=O)c2cc(NS(=O)(=O)c3cccs3)ccc2O1,inconclusive: 80.3%
14,Cc1cc(C)c(C(=O)COC(=O)CNC(=O)c2ccccc2C)c(C)c1,active: 111%
15,COc1ccc(NC(=O)N[C@@H]2CC[C@H](CCNS(=O)(=O)c3cccc(Cl)c3)O[C@H]2CO)cc1,inconclusive: 78.4%
16,O=C(N[C@@H]1C=C[C@@H](CC(=O)N2CCc3ccccc3C2)O[C@@H]1CO)C1CC1,inconclusive: 71.8%
17,Cc1ccccc1-c1cnc(C(O)c2ccc(Cl)cc2)[nH]1 (configuration not stated),inconclusive: 92.6%
18,O=C(c1cc(-c2cccc(Cl)c2)on1)N1CCN(c2ccc(F)cc2)CC1,inactive: 8.14%
19,COc1ccccc1C(=O)COC(=O)CN1C(=O)NC2(CCCC2)C1=O,active: 93.2%
20,COc1ccc(CNC(=O)c2cccc(NC(=O)CC3SC(N4CCCCC4)=NC3=O)c2)cc1 (configuration not stated),inconclusive: 97%
21,NC(=O)Nc1ccc(C(=O)OCC(=O)Nc2sccc2C(N)=O)cc1,inactive: -6.22%
22,C[C@H]1CN([C@@H](C)CO)C(=O)c2cc(C#CC3CCCC3)cnc2O[C@@H]1CN(C)C(=O)C1CCCCC1,inconclusive: 109%
23,O=C(C1CCCC1)N1CC2(C1)[C@@H](c1ccccc1)[C@H](CO)N2C(=O)c1cccnc1,inactive: 0.0405%

row,SMILES,inhibition
1,COCC(=O)NC[C@@H]1N[C@@H](CO)[C@H]1c1ccc(-c2ccccc2F)cc1,inconclusive: 99.1%
2,COc1ccccc1NC(=O)N[C@H]1CC[C@H](CCNS(=O)(=O)c2ccc(Cl)cc2)O[C@H]1CO,active: 107%
3,Cc1ccc(S(=O)(=O)c2c(CO)c(-c3ccccc3)nn2C)cc1,inactive: -2.71%
4,CN[C@H]1C[C@@H](c2ccccc2Br)N(C(C)=O)C[C@H]1CO,inconclusive: 90%
5,CN(C)CCCNC(=O)C[C@@H]1CC[C@H]2[C@@H](COC[C@H](O)CN2Cc2cccc(Cl)c2)O1,inconclusive: 90.4%
6,C/C(=N\NC(=O)c1ccncc1)c1cccc(NC(=O)c2ccc(C(C)(C)C)cc2)c1,inactive: 0.555%
7,Cc1ccccc1C1c2[nH]c3ccccc3c2C[C@H]2C(=O)N(C3CCN(Cc4ccccc4)CC3)CC(=O)N12 (some centres not stated),inconclusive: 70.9%
8,CO[C@@H]1CC[C@H]2CCOc3c(C#N)cccc3C(=O)N(C)C[C@H](C)C(=O)N(C)C[C@H]1O2,active: 122%
9,C[C@@H]1CCCCO[C@@H](CN(C)C(=O)Nc2cccc3ccccc23)[C@H](C)CN([C@@H](C)CO)C(=O)c2cc(NS(C)(=O)=O)ccc2O1,inconclusive: 70.6%
10,C[C@H](CO)N1C[C@H](C)[C@@H](CN(C)C(=O)C2CC2)Oc2cc(C#Cc3ccncc3)ccc2S1(=O)=O,inconclusive: 71.9%
11,O=[N+]([O-])c1ccc(C[n+]2cc(-c3ccccc3)n3c2CCCCC3)cc1,inactive: -0.116%
12,CCC(=O)Nc1ccc2c(c1)OC[C@H](C)N(C(=O)CC1CC1)C[C@H](C)[C@H](OC)CN(C)C2=O,active: 95.9%
13,CO[C@H]1CC[C@@]2(C)[C@@H](CC[C@@H]3[C@@H]2CC[C@@]2(C)[C@H]3C[C@H](C(=O)O)O[C@]23CCCO3)C1,inconclusive: 90.1%
14,COCC(=O)N1[C@@H]2c3ccc(/C=C/c4ccccc4)c(=O)n3C[C@H]1[C@H](CO)[C@H]2C(=O)N1CCCCC1,inconclusive: 81.1%
15,COc1ccc(C#Cc2ccc([C@H]3[C@H]4CN(S(=O)(=O)c5ccccc5)CCCCN4[C@H]3CO)cc2)cc1,active: 123%
16,CCCNC(=O)[C@@H]1[C@@H](CO)[C@@H]2Cn3c(cccc3=O)[C@H]1N2CCC(F)(F)F,active: 123%
17,CO[C@@H]1CN(C)C(=O)c2cc(NC(=O)NC(C)C)ccc2OC[C@@H](C)N(C(=O)CC2CC2)C[C@H]1C,inconclusive: 137%
18,O=C(N[C@H]1CC[C@H](CC(=O)N2CCc3ccccc3C2)O[C@@H]1CO)C1CCC1,inconclusive: 98.6%
19,CC(C)(C)OC(=O)C[C@@H]1C/C=C\C[C@@H](CC(=O)NCCO)C(=O)N[C@H](Cc2c[nH]c3ccccc23)COC1=O,inconclusive: 114%
20,CO[C@H]1CN(C)C(=O)c2cc(NC(C)=O)ccc2OC[C@@H](C)N(Cc2cncnc2)C[C@@H]1C,inconclusive: 85.9%
21,N#C[C@@H]1[C@@H](c2ccc(-c3ccccc3)cc2)[C@H](CO)N1C(=O)Cc1ccccc1,inconclusive: 71%
22,N#CCCN(CCC#N)C(=O)C1c2ccccc2Oc2ccccc21,active: 131%
23,CCCOc1ccc(NC(=O)Cc2ccc(S(=O)(=O)N3CCOCC3)s2)cc1OCCC,inconclusive: 88.3%

# An excerpt of these results, as tab-separated lines.
row	SMILES	inhibition
13	CO[C@H]1CC[C@@]2(C)[C@@H](CC[C@@H]3[C@@H]2CC[C@@]2(C)[C@H]3C[C@H](C(=O)O)O[C@]23CCCO3)C1	inconclusive: 90.1%
14	COCC(=O)N1[C@@H]2c3ccc(/C=C/c4ccccc4)c(=O)n3C[C@H]1[C@H](CO)[C@H]2C(=O)N1CCCCC1	inconclusive: 81.1%
15	COc1ccc(C#Cc2ccc([C@H]3[C@H]4CN(S(=O)(=O)c5ccccc5)CCCCN4[C@H]3CO)cc2)cc1	active: 123%
16	CCCNC(=O)[C@@H]1[C@@H](CO)[C@@H]2Cn3c(cccc3=O)[C@H]1N2CCC(F)(F)F	active: 123%
17	CO[C@@H]1CN(C)C(=O)c2cc(NC(=O)NC(C)C)ccc2OC[C@@H](C)N(C(=O)CC2CC2)C[C@H]1C	inconclusive: 137%

# Next part

row,SMILES,inhibition
1,C[C@H]1CN([C@@H](C)CO)C(=O)c2cccc(NS(=O)(=O)c3ccc(Cl)cc3)c2O[C@H]1CN(C)C(=O)Nc1ccccc1,inactive: 26.6%
2,C[C@H](NC(=O)C1CCN(S(=O)(=O)c2ccccc2)CC1)C(=O)NC1CC1,inactive: 1.37%
3,COc1ccc(NC(=O)Nc2ccc3c(c2)C(=O)N([C@@H](C)CO)C[C@@H](C)[C@H](CN(C)Cc2ccc(Cl)c(Cl)c2)OCCCC[C@H](C)O3)cc1,inconclusive: 138%
4,CC(C)CC#Cc1ccc2c(c1)O[C@H](CN(C)C(=O)c1ccncc1)[C@H](C)CN([C@@H](C)CO)S2(=O)=O,inconclusive: 82.4%
5,O=C(C[C@@H]1CC[C@H]2[C@@H](COC[C@H](O)CN2C(=O)Nc2ccc(F)cc2)O1)NC1Cc2ccccc2C1,inconclusive: 88.3%
6,COc1cccc(/C=N/Nc2ccc([N+](=O)[O-])cn2)c1O,inactive: -2.85%
7,S=C(NCc1cccnc1)Nc1ccc(Cl)cc1Cl,inconclusive: 88.8%
8,C[C@@H]1CN([C@H](C)CO)C(=O)c2cccc(NC(=O)c3cnccn3)c2O[C@H]1CN(C)C(=O)Nc1ccc2c(c1)OCO2,inconclusive: 94.3%
9,CC(=O)N1CCN(C(=O)c2cc(S(=O)(=O)Nc3ccc(S(C)(=O)=O)cc3)ccc2Cl)CC1,inactive: -2.18%
10,CCCC1(C(=O)OC)NC(c2ccco2)C2C(=O)N(C)C(=O)C21 (configuration not stated),inconclusive: 70.7%
11,CCCC#Cc1cnc2c(c1)C(=O)N([C@H](C)CO)C[C@H](C)[C@@H](CN(C)Cc1ccc3c(c1)OCO3)O2,inconclusive: 73.5%
12,CC(C)C#Cc1cnc2c(c1)C(=O)N([C@@H](C)CO)C[C@H](C)[C@@H](CN(C)C(=O)CN1CCOCC1)O2,inconclusive: 77.6%
13,CNC[C@@H]1Oc2ncc(C#CC3(O)CCCC3)cc2C(=O)N([C@@H](C)CO)C[C@@H]1C,inactive: 1.48%
14,COc1ccccc1CN(C)C[C@@H]1OCc2ccccc2-c2c(n(C)c3ccccc23)C(=O)N([C@@H](C)CO)C[C@@H]1C,inactive: 3.53%
15,CCCn1c(N)c(N(CCOC)C(=O)CSCC(=O)Nc2cccc(C)c2)c(=O)[nH]c1=O,inconclusive: 70.1%
16,C[C@@H]1CCCCO[C@H](CN(C)C(=O)C2CCCCC2)[C@H](C)CN([C@@H](C)CO)C(=O)c2cc(NC(=O)c3ccncc3)ccc2O1,inconclusive: 74%
17,Cc1cccn2c(=O)c(C=O)c(N3CC(C)OC(C)C3)nc12 (configuration not stated),inactive: 5.2%
18,O=C(C[C@@H]1C=C[C@@H](NC(=O)Nc2cc(F)ccc2F)[C@H](CO)O1)NCc1ccncn1,inconclusive: 98%
19,C[C@H]1CN([C@@H](C)CO)C(=O)Cc2cc(NC(=O)CCCCCC(=O)Nc3ccccc3N)ccc2O[C@H]1CN(C)Cc1ccc(Oc2ccccc2)cc1,inactive: 6.81%
20,Cc1cc2nc3c(=O)[nH]c(=O)[nH]c3nc2c([N+](=O)[O-])c1N,inconclusive: 78.8%
21,OC[C@@H]1[C@H](c2ccc(/C=C/c3ccccc3)cc2)[C@@H]2CN(Cc3ccncc3)CCCCN12,inconclusive: 86.5%
